For at least one compound, name, drawing or mass did not settle the structure.
Tested on: AML cell lines (U-937, MV4-11, THP-1, MonoMac6)
Assay: Apoptosis by Annexin V-FITC/propidium iodide flow cytometry after ABT-199 treatment
Format: cell-based, human
Settings: 48 hrs; THP-1 and MonoMac6 (lower miR-15/16 expression) compared to U-937 and MV4-11 (normal miR-15/16 expression); FIG. 3D

In the case of `CC1(C)CCC(CN2CCN(c3ccc(C(=O)NS(=O)(=O)c4ccc(NCC5CCOCC5)c([N+](=O)[O-])c4)c(Oc4cnc5[nH]ccc5c4)c3)CC2)=C(c2ccc(Cl)cc2)C1` [ABT-199, venetoclax], the “sensitivity to ABT-199 treatment (apoptosis, Annexin V staining)” value is reported as “more sensitive”.

Source: patent US20230183808A1, “Methods of Detecting and Treating Cancers Characterized by Loss of miR15 and miR16 Expression” (priority 2020, published 2023)
